# Patent publication US8461328B2, “Tricyclic heterocyclic compounds, compositions and methods of use thereof” (Genentech, Inc., priority 2010, dated 2013)
# The chains behind the UniProt entries cited, without tags or fusion partners. Residues count along the entry.
# UniProt P23458, 852-1154: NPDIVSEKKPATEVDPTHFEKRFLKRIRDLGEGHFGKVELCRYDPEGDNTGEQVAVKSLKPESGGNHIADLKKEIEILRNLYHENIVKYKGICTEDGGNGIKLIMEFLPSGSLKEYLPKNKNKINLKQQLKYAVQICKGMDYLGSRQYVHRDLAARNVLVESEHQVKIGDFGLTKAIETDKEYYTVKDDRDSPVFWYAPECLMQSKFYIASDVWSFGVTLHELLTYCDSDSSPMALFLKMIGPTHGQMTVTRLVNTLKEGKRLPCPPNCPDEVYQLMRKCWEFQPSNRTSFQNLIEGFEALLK
# Some of these results come from one statement about several compounds together.
# Molecular target: T1, human JAK1 kinase domain (Homo sapiens, UniProt P23458)
# T1 construct: made in house; host or cells: SF9 insect cells (baculovirus)
# Assay: JAK1 inhibition assay (Example B), Caliper LabChip peptide phosphorylation
# Assay type: biochemical
# Settings: 1.5 nM JAK1, 25 μM ATP, Morrison tight binding model; read-out: Ki in a JAK1 kinase activity assay (Example B)
row,SMILES,Ki [µM]
1,"CS(=O)(=O)c1ccc(S(=O)(=O)N2CCC(n3cnc4cnc5[nH]ccc5c43)CC2)cc1 [Example 450, 1-(1-(4-(methylsulfonyl)phenylsulfonyl)piperidin-4-yl)-1,6-dihydroimidazo[4,5-d]pyrrolo[2,3-b]pyridine]",< 0.5
2,"CC(C)(C#N)C(=O)N1CCC(n2cnc3cnc4[nH]ccc4c32)CC1 [Example 451, 2,2-Dimethyl-3-oxo-3-[4-(6H-1,3,5,6-tetraaza-as-indacen-1-yl)-piperidin-1-yl]-propionitrile]",< 0.5
3,"O=C([C@@H]1COCCN1)N1CCC(n2cnc3cnc4[nH]ccc4c32)CC1 [Example 455, (S)-Morpholin-3-yl-[4-(6H-1,3,5,6-tetraaza-as-indacen-1-yl)-piperidin-1-yl]-methanone]",< 0.5
4,"c1cc2c(ncc3nnn(C4CCOCC4)c32)[nH]1 [Example 467, 1-(Tetrahydro-pyran-4-yl)-1,6-dihydro-1,2,3,5,6-pentaaza-as-indacene]",< 0.5
5,"c1cc2c(ncc3ncn(C4CCOCC4)c32)[nH]1 [Example 468, 1-(Tetrahydro-pyran-4-yl)-1,6-dihydro-1,3,5,6-tetraaza-as-indacene]",< 0.5
6,"c1cncc(Cc2nc3cnc4[nH]ccc4c3n2C2CCOCC2)c1 [Example 469, 2-Pyridin-3-ylmethyl-1-(tetrahydro-pyran-4-yl)-1,6-dihydro-1,3,5,6-tetraaza-as-indacene]",< 0.5
7,"O=C(O)[C@H]1C[C@@H](n2cnc3cnc4[nH]ccc4c32)C1 [Example 484, 3-(6H-1,3,5,6-Tetraaza-as-indacen-1-yl)-cyclobutanecarboxylic acid]",< 0.5
8,"N#CCCN1CCC(n2c(CNC(=O)c3cccnc3)nc3cnc4[nH]ccc4c32)CC1 [Example 494, N-{1-[1-(2-Cyano-ethyl)-piperidin-4-yl]-1,6-dihydro-1,3,5,6-tetraaza-as-indacen-2-ylmethyl}-nicotinamide]",< 0.5
9,"N#CCCN1CCC(n2c(CNC(=O)c3ccccn3)nc3cnc4[nH]ccc4c32)CC1 [Example 496, Pyridine-2-carboxylic acid {1-[1-(2-cyano-ethyl)-piperidin-4-yl]-1,6-dihydro-1,3,5,6-tetraaza-as-indacen-2-ylmethyl}-amide]",< 0.5
10,"N#CCCN1CCC(n2c(CNC(=O)c3ccccc3F)nc3cnc4[nH]ccc4c32)CC1 [Example 501, N-{1-[1-(2-Cyano-ethyl)-piperidin-4-yl]-1,6-dihydro-1,3,5,6-tetraaza-as-indacen-2-ylmethyl}-2-fluoro-benzamide]",< 0.5
11,"N#CCCN1CCC(n2c(CNC(=O)c3cccc(F)c3)nc3cnc4[nH]ccc4c32)CC1 [Example 505, N-{1-[1-(2-Cyano-ethyl)-piperidin-4-yl]-1,6-dihydro-1,3,5,6-tetraaza-as-indacen-2-ylmethyl}-3-fluoro-benzamide]",< 0.5
12,"CCN1CC[C@@H](n2c(C)nc3cnc4[nH]ccc4c32)[C@@H](F)C1 [Example 521, 1-((3S,4R)-1-Ethyl-3-fluoro-piperidin-4-yl)-2-methyl-1,6-dihydro-1,3,5,6-tetraaza-as-indacene]",< 0.5
13,"CCN1CC[C@@H](n2nnc3cnc4[nH]ccc4c32)[C@@H](F)C1 [Example 522, 1-((3S,4R)-1-Ethyl-3-fluoro-piperidin-4-yl)-1,6-dihydro-1,2,3,5,6-pentaaza-as-indacene]",< 0.5
14,"CCN1CC[C@@H](n2cnc3cnc4[nH]ccc4c32)[C@@H](F)C1 [Example 523, 1-((3S,4R)-1-Ethyl-3-fluoro-piperidin-4-yl)-1,6-dihydro-1,3,5,6-tetraaza-as-indacene]",< 0.5
15,"C[C@H](O)c1nc2cnc3[nH]ccc3c2n1C1CCOCC1 [Example 543, (S)-1-[1-(Tetrahydro-pyran-4-yl)-1,6-dihydro-1,3,5,6-tetraaza-as-indacen-2-yl]-ethanol]",< 0.5
16,"Cc1nc2cnc3[nH]ccc3c2n1C1CCN(C(C)C)CC1 [Example 547, 1-(1-Isopropyl-piperidin-4-yl)-2-methyl-1,6-dihydro-1,3,5,6-tetraaza-as-indacene]",< 0.5
17,"CC(C)N1CCC(n2nnc3cnc4[nH]ccc4c32)CC1 [Example 548, 1-(1-Isopropyl-piperidin-4-yl)-1,6-dihydro-1,2,3,5,6-pentaaza-as-indacene]",< 0.5
18,"CC(C)N1CCC(n2cnc3cnc4[nH]ccc4c32)CC1 [Example 549, 1-(1-Isopropyl-piperidin-4-yl)-1,6-dihydro-1,3,5,6-tetraaza-as-indacene]",< 0.5

# Second part, the molecule after the results:
row,Ki [µM],SMILES
1,< 0.5,"O=c1ccn(Cc2nc3cnc4[nH]ccc4c3n2C2CCOCC2)c(=O)[nH]1 [Example 470, 1-[1-(Tetrahydro-pyran-4-yl)-1,6-dihydro-1,3,5,6-tetraaza-as-indacen-2-ylmethyl]-1H-pyrimidine-2,4-dione]"
2,< 0.5,"Cc1n[nH]c(C)c1CCc1nc2cnc3[nH]ccc3c2n1C1CCOCC1 [Example 471, 2-[2-(3,5-Dimethyl-1H-pyrazol-4-yl)-ethyl]-1-(tetrahydro-pyran-4-yl)-1,6-dihydro-1,3,5,6-tetraaza-as-indacene]"
3,< 0.5,"Cc1cc(Cc2nc3cnc4[nH]ccc4c3n2C2CCOCC2)on1 [Example 472, 2-(3-Methyl-isoxazol-5-ylmethyl)-1-(tetrahydro-pyran-4-yl)-1,6-dihydro-1,3,5,6-tetraaza-as-indacene]"
4,< 0.5,"O=C1CN(Cc2nc3cnc4[nH]ccc4c3n2C2CCOCC2)CCN1 [Example 473, 4-[1-(Tetrahydro-pyran-4-yl)-1,6-dihydro-1,3,5,6-tetraaza-as-indacen-2-ylmethyl]-piperazin-2-one]"
5,< 0.5,"CS(=O)(=O)Cc1nc2cnc3[nH]ccc3c2n1C1CCN(CCC#N)CC1 [Example 491, 3-[4-(2-Methanesulfonylmethyl-6H-1,3,5,6-tetraaza-as-indacen-1-yl)-piperidin-1-yl]-propionitrile]"
6,< 0.5,"CC(=O)NCc1nc2cnc3[nH]ccc3c2n1C1CCN(CCC#N)CC1 [Example 492, N-{1-[1-(2-Cyano-ethyl)-piperidin-4-yl]-1,6-dihydro-1,3,5,6-tetraaza-as-indacen-2-ylmethyl}-acetamide]"
7,< 0.5,"CC(C)S(=O)(=O)NCc1nc2cnc3[nH]ccc3c2n1C1CCN(CCC#N)CC1 [Example 495, Propane-2-sulfonic acid {1-[1-(2-cyano-ethyl)-piperidin-4-yl]-1,6-dihydro-1,3,5,6-tetraaza-as-indacen-2-ylmethyl}-amide]"
8,< 0.5,"N#CCCN1CCC(n2c(CNS(=O)(=O)C3CC3)nc3cnc4[nH]ccc4c32)CC1 [Example 497, Cyclopropanesulfonic acid {1-[1-(2-cyano-ethyl)-piperidin-4-yl]-1,6-dihydro-1,3,5,6-tetraaza-as-indacen-2-ylmethyl}-amide]"
9,< 0.5,"CC(C)C(=O)NCc1nc2cnc3[nH]ccc3c2n1C1CCN(CCC#N)CC1 [Example 498, N-{1-[1-(2-Cyano-ethyl)-piperidin-4-yl]-1,6-dihydro-1,3,5,6-tetraaza-as-indacen-2-ylmethyl}-isobutyramide]"
10,< 0.5,"N#CCCN1CCC(n2c(CNS(=O)(=O)C3CCCC3)nc3cnc4[nH]ccc4c32)CC1 [Example 499, Cyclopentanesulfonic acid {1-[1-(2-cyano-ethyl)-piperidin-4-yl]-1,6-dihydro-1,3,5,6-tetraaza-as-indacen-2-ylmethyl}-amide]"
11,< 0.5,"N#CCCN1CCC(n2c(CNC(=O)C3CC3)nc3cnc4[nH]ccc4c32)CC1 [Example 500, Cyclopropanecarboxylic acid {1-[1-(2-cyano-ethyl)-piperidin-4-yl]-1,6-dihydro-1,3,5,6-tetraaza-as-indacen-2-ylmethyl}-amide]"
12,< 0.5,"COCC(=O)NCc1nc2cnc3[nH]ccc3c2n1C1CCN(CCC#N)CC1 [Example 503, N-{1-[1-(2-Cyano-ethyl)-piperidin-4-yl]-1,6-dihydro-1,3,5,6-tetraaza-as-indacen-2-ylmethyl}-2-methoxy-acetamide]"
13,< 0.5,CCS(=O)(=O)NCc1nc2cnc3[nH]ccc3c2n1C1CCN(CCC#N)CC1 [Example 504]
14,< 0.5,"CC(C)CS(=O)(=O)NCc1nc2cnc3[nH]ccc3c2n1C1CCN(CCC#N)CC1 [Example 506, 2-Methyl-propane-1-sulfonic acid {1-[1-(2-cyano-ethyl)-piperidin-4-yl]-1,6-dihydro-1,3,5,6-tetraaza-as-indacen-2-ylmethyl}-amide]"
15,< 0.5,"OCc1nc2cnc3[nH]ccc3c2n1C1CCN(CCF)CC1 [Example 508, {1-[1-(2-Fluoro-ethyl)-piperidin-4-yl]-1,6-dihydro-1,3,5,6-tetraaza-as-indacen-2-yl}-methanol]"
16,< 0.5,"O=S(=O)(CCC(F)(F)F)NCCc1nc2cnc3[nH]ccc3c2n1C1CCCCC1 [Example 509, 3,3,3-Trifluoro-propane-1-sulfonic acid [2-(1-cyclohexyl-1,6-dihydro-1,3,5,6-tetraaza-as-indacen-2-yl)-ethyl]-amide]"
17,< 0.5,"CN(C)CC(=O)NCCc1nc2cnc3[nH]ccc3c2n1C1CCCCC1 [Example 510, N-[2-(1-Cyclohexyl-1,6-dihydro-1,3,5,6-tetraaza-as-indacen-2-yl)-ethyl]-2-dimethylamino-acetamide]"
18,< 0.5,"CN1CCN(S(=O)(=O)NCCc2nc3cnc4[nH]ccc4c3n2C2CCCCC2)CC1 [Example 511, 4-Methyl-piperazine-1-sulfonic acid [2-(1-cyclohexyl-1,6-dihydro-1,3,5,6-tetraaza-as-indacen-2-yl)-ethyl]-amide]"
19,< 0.5,"Cc1nc2cnc3[nH]ccc3c2n1C1CCN(CCF)CC1 [Example 513, 1-[1-(2-Fluoro-ethyl)-piperidin-4-yl]-2-methyl-1,6-dihydro-1,3,5,6-tetraaza-as-indacene]"
20,< 0.5,"N#CCCN1CCC(n2c(CF)nc3cnc4[nH]ccc4c32)CC1 [Example 530, 3-[4-(2-Fluoromethyl-6H-1,3,5,6-tetraaza-as-indacen-1-yl)-piperidin-1-yl]-propionitrile]"
21,< 0.5,"OCc1nc2cnc3[nH]ccc3c2n1C1CCOCC1 [Example 542, [1-(Tetrahydro-pyran-4-yl)-1,6-dihydro-1,3,5,6-tetraaza-as-indacen-2-yl]-methanol]"
